Results reported in EP0834572A2, “Alpha, gamma-diaminobutyric acid (DAB) containing oligopeptide derivatives” (F. HOFFMANN-LA ROCHE AG, priority 1996, dated 1998).
Part of at least one peptide drawing is inferred or uncertain, most often the ends. Non-standard residues stand in square brackets, D forms with d. Residues, ends and D or L forms follow the SMILES beside them. *: point of attachment. Palmitoyl = CCCCCCCCCCCCCCCC(=O)*; dDab = NCC[C@@H](N)C(=O)O; Dab = NCC[C@H](N)C(=O)O; NHNH2 = NN*

System: CaCo-2 cells
Experiment: Transfection of CaCo-2 cells with plasmid DNA pGL3-CMV, luciferase activity measured 24h later
Format: cell-based
Conditions: Example 5: CaCo-2 cells in 6-well plate, 5 µg plasmid DNA pGL3-CMV per well, +/- charge ratio 2/1, DOPE added at molar ratio 5/1, 24h

CCCCCCCCCCCCCCCC(=O)NCC[C@@H](N)C(=O)N[C@@H](CCN)C(=O)NN [Palm-(Dab)2NHNH2, Nγ-palmitoyl-D-(α,γ-diaminobutyryl)-L-(α,γ-diaminobutyric acid) hydrazide] (H-[dDab](Palmitoyl)-[Dab]-NHNH2)
Luciferase activity (RLU): 1 x 10^5 RLU
